Binding data for six substances are collected here from article PMC11534337.

Chains of the proteins cited; added tags and fusions are not shown.
UniProt P27361: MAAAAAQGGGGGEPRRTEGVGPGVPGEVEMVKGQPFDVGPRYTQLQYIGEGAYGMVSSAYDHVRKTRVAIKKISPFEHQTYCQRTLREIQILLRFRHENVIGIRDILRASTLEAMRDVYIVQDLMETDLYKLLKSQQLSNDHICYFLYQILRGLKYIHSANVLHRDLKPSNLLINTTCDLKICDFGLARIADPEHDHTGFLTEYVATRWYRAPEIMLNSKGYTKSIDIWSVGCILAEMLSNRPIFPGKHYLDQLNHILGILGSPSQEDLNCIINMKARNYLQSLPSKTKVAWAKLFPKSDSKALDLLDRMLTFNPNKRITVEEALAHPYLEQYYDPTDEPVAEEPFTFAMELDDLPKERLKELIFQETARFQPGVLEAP
UniProt Q63844: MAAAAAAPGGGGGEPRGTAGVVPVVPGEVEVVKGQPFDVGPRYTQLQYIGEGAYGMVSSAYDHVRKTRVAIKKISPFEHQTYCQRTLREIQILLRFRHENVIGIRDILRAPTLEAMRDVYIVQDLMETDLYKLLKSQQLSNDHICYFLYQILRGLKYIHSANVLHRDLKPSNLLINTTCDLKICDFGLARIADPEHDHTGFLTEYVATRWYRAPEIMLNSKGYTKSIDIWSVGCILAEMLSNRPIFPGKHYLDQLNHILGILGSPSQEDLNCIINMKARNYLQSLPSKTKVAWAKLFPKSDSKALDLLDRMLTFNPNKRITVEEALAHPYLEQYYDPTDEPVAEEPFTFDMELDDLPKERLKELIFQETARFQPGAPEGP
UniProt P28482: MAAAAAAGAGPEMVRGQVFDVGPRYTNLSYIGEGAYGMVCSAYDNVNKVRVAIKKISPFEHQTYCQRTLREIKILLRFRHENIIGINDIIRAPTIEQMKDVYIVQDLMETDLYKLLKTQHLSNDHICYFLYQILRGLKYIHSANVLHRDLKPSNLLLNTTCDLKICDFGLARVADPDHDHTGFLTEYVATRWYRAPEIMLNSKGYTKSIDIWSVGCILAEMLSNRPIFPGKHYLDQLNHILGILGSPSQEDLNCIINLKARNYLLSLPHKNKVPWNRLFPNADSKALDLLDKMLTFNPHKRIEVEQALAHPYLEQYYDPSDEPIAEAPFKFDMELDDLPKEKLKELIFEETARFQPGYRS
UniProt P63085: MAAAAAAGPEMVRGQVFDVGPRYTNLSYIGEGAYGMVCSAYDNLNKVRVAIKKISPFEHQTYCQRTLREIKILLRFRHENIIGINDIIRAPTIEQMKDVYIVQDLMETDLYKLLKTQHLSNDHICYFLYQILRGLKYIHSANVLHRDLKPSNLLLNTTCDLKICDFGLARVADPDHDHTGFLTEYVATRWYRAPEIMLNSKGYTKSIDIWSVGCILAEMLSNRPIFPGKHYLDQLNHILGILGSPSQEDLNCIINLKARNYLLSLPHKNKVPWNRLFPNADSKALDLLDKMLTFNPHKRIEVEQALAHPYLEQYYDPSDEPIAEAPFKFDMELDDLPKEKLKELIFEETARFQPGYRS
UniProt P26369: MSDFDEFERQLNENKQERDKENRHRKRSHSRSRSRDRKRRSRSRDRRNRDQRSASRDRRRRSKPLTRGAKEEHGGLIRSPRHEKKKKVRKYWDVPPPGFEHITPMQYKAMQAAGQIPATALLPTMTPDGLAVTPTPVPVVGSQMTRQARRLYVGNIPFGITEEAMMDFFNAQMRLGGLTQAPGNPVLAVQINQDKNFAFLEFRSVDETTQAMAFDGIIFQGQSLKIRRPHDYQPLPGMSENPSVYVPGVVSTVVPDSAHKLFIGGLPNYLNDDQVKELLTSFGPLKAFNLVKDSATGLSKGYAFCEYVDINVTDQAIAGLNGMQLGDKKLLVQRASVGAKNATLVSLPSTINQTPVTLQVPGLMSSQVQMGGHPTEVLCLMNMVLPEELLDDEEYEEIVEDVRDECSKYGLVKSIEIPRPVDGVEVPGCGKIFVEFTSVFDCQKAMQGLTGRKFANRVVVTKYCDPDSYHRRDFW

One assay has as its target T1, Flag-SIRT4 WT (UniProt Q9Y6E7).
T1 sequence: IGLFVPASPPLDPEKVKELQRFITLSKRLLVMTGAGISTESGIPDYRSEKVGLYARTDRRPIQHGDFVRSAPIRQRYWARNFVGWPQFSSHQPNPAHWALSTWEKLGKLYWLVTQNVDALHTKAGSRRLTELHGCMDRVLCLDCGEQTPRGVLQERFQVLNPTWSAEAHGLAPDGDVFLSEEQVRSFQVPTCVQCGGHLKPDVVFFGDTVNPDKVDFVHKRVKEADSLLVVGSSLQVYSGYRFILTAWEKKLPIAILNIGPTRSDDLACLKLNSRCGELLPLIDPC
As to the kind of experiment: co-IP; HK2 cells expressing Flag-SIRT4 proteins, with or without TGF-β1 (2 ng/ml, 12 hr); immunoprecipitated Flag-SIRT4 blotted with anti-ERK1/2 antibody.

Assay [1] deals with T2, SIRT4 (mouse (endogenous in primary mouse TECs and mouse kidney)) (UniProt Q8R216).
T2 sequence: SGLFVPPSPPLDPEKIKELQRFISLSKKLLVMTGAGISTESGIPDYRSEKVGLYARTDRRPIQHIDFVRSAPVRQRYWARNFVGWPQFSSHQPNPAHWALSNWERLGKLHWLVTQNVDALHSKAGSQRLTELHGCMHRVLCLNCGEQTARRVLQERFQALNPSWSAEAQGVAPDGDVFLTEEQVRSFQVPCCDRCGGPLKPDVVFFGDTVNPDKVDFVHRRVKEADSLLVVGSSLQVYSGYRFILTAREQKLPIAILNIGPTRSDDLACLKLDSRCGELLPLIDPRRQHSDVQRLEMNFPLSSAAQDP
As to the kind of experiment: co-IP; primary mouse TECs (WT) treated with TGF-β1; lysate in 20 mM Tris-HCl pH 8.0, 100 mM NaCl, 1 mM EDTA, 0.5% NP-40; IP with anti-SIRT4 antibody; endogenous proteins.

The target in assay [2] is T3, HA-Sirt4 (UniProt Q8R216).
T3 sequence: T2 sequence
As to the kind of experiment: co-IP; WT TECs transfected with HA-Sirt4 and/or Flag-U2af2, then TGF-β1; IP with anti-SIRT4 antibody.

The target of assay [3] is T3, HA-Sirt4. As to the kind of experiment: co-IP; WT TECs transfected with Flag-U2af2 WT and HA-Sirt4 under TGF-β1 stimulation (doses); IP with anti-HA antibody.
Assay [4] concerns the target T2, SIRT4 (mouse (endogenous in primary mouse TECs and mouse kidney)). As to the kind of experiment: co-IP; whole-kidney lysates of sham, uIRI and UUO mice; IP with anti-SIRT4 antibody; endogenous proteins.

No constants are given. Whether binding was seen depends on the method and setting. In cells and extracts the contact can be indirect. Some entries that bind do so weakly or less than the wild type. For some assays here: Where a sequence is shown, tags or fusion partners need not be part of it.

For ERK1 (from UniProt P27361 1-379), the binding result in the assay with Flag-SIRT4 WT is listed as “binds”.
With ERK1 (from UniProt Q63844 1-380), the binding entry in assay [1] is listed as “binds”.
As for ERK2 (from UniProt P28482 1-360), the binding result with Flag-SIRT4 WT is reported as “binds”.
With ERK2 (from UniProt P63085 1-358), in assay [1], the binding entry is “binds”.
Consider “Flag-U2af2 WT (from UniProt P26369 1-475)”, for which the binding entry with HA-Sirt4 [2] and in the assay with HA-Sirt4 [3] was “binds” each time.
Regarding U2AF2 (from UniProt P26369 1-475), the binding result in assay [4] and in assay [1] was “binds” each time.
